“Also recorded” adds a separate entry of the source. At least one compound was matched to its structure with a doubt left.
How the values were obtained:
[1] = system: DIO (Diet-Induced-Obese) mice; test: In vivo efficacy study in Diet Induced Obesity (DIO) model; design: species or system C57BL/6J mice
Method: In vivo efficacy study in Diet Induced Obesity (DIO) model: Male C57BL/6J mice were kept on a high fat diet for 24 weeks. […] Thereafter, metabolic assessment was performed in order to evaluate the efficacy of the treatment. The efficacy was evaluated by measurements of the following parameters: • 1. Body weight and food intake, • 2. Total energy expenditure (TEE) and respiratory quotient (RQ). • 3. Fat and Carbohydrate oxidation (FO and CHO, respectively), • 4. Total ambulation, • 5. Glucose homeostasis, • 6. Hepatic Steatosis and Liver Injury, • 7. Lipid profile, • 8. Kidney function.
Animals: The experimental protocol used is approved by the Institutional Animal Care and Use Committee of the Hebrew University. Male, 25 weeks old, C57BL/6J mice were purchased from Jackson laboratories. Mice were maintained under a 12-h light/dark cycle and fed ad libitum. To maintain diet-induced obesity, C57BL/6J mice were fed with high-fat diet (HFD) (60% of calories from fat, 20% from protein, and 20% from carbohydrates; Research Diet, D12492) for overall 30 weeks.
[…] Body weight and food intake were monitored daily. Total body fat and lean masses were determined by EchoMRI-100H™ (Echo Medical Systems LLC, Houston, TX, USA). 24 h urine was collected 2-4 days before euthanasia using mouse metabolic cages (CCS2000 Chiller System, Hatteras Instruments, NC, USA). At the end of the observation period, mice were euthanized by a cervical dislocation under anesthesia, the kidneys, liver, brain, spleen, fat, and pancreas were removed, and samples were fixed in buffered 4% formalin (for histopathological analysis) or snap frozen (for biochemistry analysis). Trunk blood was collected for determining the biochemical parameters.
Multi-parameter metabolic assessment: Metabolic profile of the mice was assessed by using the Promethion High-Definition Behavioral Phenotyping System
(Sable Instruments, Inc., Las Vegas, NV, USA). Data acquisition and instrument control were performed using MetaScreen software version 2.2.18.0, and the obtained raw data were processed using ExpeData version 1.8.4 using an analysis script detailing all aspects of data transformation. Mice with free access to food and water were subjected to a standard 12 hr light/12 hr dark cycle, which consisted of 48 hr acclimation period followed by 24 hr of sampling. Respiratory gases were measured by using the GA-3 gas analyzer (Sable Systems, Inc., Las Vegas, NV, USA) using a pull-mode, negative-pressure system. Air flow was measured and controlled by FR-8 (Sable Systems, Inc., Las Vegas, NV, USA), with a set flow rate of 2000 mL/min. Water vapor was continuously measured and its dilution effect on O2 and CO2 was mathematically compensated. Effective mass was calculated by [body mass]0.75. Fat oxidation (FO) and carbohydrate oxidation (CHO) were calculated as FO=1.69×VO2−1.69×VCO2 and CHO=4.57×VCO2−3.23×VO2 and expressed as g/d/kg^eff.Mass.
Locomotor activity: Locomotor activity was quantified by the number of disruptions of infrared XYZ beam arrays with a beam spacing of 0.25 cm in the Promethion High-Definition Behavioral Phenotyping System (Sable Instruments, Inc., Las Vegas, NV, USA).
Glucose tolerance (ipGTT) test and insulin sensitivity tests (ipIST): Mice that fasted overnight were injected with glucose (1.5 g/kg, IP), followed by a tail blood collection at 0, 15, 30, 45, 60, 90, 120 min. Blood glucose levels were determined using the Elite glucometer (Bayer, Pittsburgh, PA). Two days later, mice were fasted for 6 hr before receiving insulin (0.75 U/kg, IP; Eli Lilly, DC, USA or Actrapid® vial, novo nordisk A/S, Denmark), and blood glucose levels were determined at the same intervals.
Creatinine clearance was calculated using urine and serum creatinine levels (CCr mL/h=Urine creatinine mg/dL×Urine volume/Serum creatinine mg/dL×24 hr). Fasting blood glucose was measured using the Elite glucometer (Bayer, Pittsburgh, PA). […]

Protein sequences, listed by entry. Tags and fused reporters are not part of them.
UniProt P47746, whole entry: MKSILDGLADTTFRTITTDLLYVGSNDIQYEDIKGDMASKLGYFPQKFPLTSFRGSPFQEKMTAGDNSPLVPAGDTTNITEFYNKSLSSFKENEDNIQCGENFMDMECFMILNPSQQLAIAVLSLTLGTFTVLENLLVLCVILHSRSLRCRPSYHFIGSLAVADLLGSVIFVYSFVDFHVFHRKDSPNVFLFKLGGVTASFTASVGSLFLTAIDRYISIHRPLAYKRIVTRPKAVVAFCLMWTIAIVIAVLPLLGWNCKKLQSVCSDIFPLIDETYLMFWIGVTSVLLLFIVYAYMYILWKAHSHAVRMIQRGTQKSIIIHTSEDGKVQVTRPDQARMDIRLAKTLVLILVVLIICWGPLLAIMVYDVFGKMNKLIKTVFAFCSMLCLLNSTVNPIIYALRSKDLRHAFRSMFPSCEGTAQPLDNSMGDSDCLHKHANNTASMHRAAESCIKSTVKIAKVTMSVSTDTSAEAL

CB1 receptor [2] = target: T1, CB1 receptor (Mus musculus (Mouse), UniProt P47746); test: [35S]GTPγS binding assay for CB1 receptor, mouse brain membranes; type: biochemical; conditions: nature of binding: agonist/antagonist/inverse agonist
Method: For CB1 receptor-mouse brains were dissected and P2 membranes prepared and resuspended at ˜2 μg protein/μL in 1 ml assay buffer (50 mM Tris HCl, 9 mM MgCl2, 0.2 mM EDTA, 150 mM NaCl; pH 7.4). Ligand-stimulated [^35S]GTPγS binding was assayed as described previously (Tam et al., JCI 2010). Briefly, membranes (10 μg protein) were incubated in assay buffer containing 100 μM GDP, 0.05 nM [^35S]GTPγS, test compounds at various concentrations (CP55940/Rimonabant as controls and test compounds for BB8 conjugates), and 1.4 mg/mL fatty acid-free BSA in siliconized glass tubes. Membranes with bound ligand ([^35S]GTPγS) were separated from free ligand by vacuum filtration and were analyzed using β counter as described above. Non-specific binding was determined using 10 μM GTPS (cold GTP). Basal binding was assayed in the absence of the tested compound and in the presence of GDP.

CB1 receptor [3] = target: T1, CB1 receptor; test: CB1 receptor radioligand binding assay, [3H]CP-55,940 displacement, mouse brain membranes; conditions: CB1 receptor (mouse/human)
Method: Radioligand binding assays: Binding affinity was determined by a radioligand binding assay. The different BB8-conjugates binding to CB1 and CB2 receptors was assessed in competition displacement assays using [^3H]CP-55.940 as the radioligand and crude membranes from mouse brain for CB1 receptor and human kidney cells for CB2 receptor.
CB1 receptor binding assay: Mouse brain membranes were used as the source material for CB1 receptors. The displacement of specifically bound tritiated CP-55.940 from these membranes using a standard filtration assay was used to determine the Ki values for the test compounds. Briefly. 20 μg of protein was incubated for 1 h at 30° C. in the presence of 0.5 nM [^3H]CP-55,940 and various concentrations (10^−5M-10^−11M) of test compound/control, final volume of 1 mL. The incubation was terminated by rapid filtration and washing, and the amount of specifically bound [^3H]CP-55,940 was determined. […] Finally, the Whatman filter paper with adsorbed membranes was cut and placed in scintillation liquid (Ultima Gold) for 1 h at 25° C. followed by a β counter reading of bound [^3H]CP-55,940 radioligand. All data were in triplicates with Ki values determined using GraphPad Prism 7.02 analysis software. […]

Which “HFD-induced hepatic steatosis (fat vacuoles in the liver)” value ([1]; 1 mg/kg/day PO) does the source give for O=S(=O)(NC1CCCOc2c1nn(-c1ccccc1Cl)c2-c1ccc(Cl)cc1)c1ccc(Cl)cc1 (stereo not shown) [BNS808, 4-chloro-N-[2-(2-chlorophenyl)-3-(4-chlorophenyl)-5,6,7,8-tetrahydrooxepino[3,2-c]pyrazol-8-yl]benzenesulfonamide] here?
Its value is “ameliorate; also recorded: reduced deposition of fat vacuoles”.

And the “HFD-induced hyperglycemia and glucose intolerance” value ([1]; 1 mg/kg/day PO)?
Its value is “did not impact”.

What about the “HFD-induced kidney hyperfiltration (GFR)” value ([1]; 1 mg/kg/day PO) of the same molecule?
The value was “certain trend toward improvement”.

What about the “TG and cholesterol serum levels” value ([1]; 1 mg/kg/day PO) of the same molecule?
Its value is “corresponding trends”.

What about the “blood urea nitrogen (BUN)” value ([1]; 1 mg/kg/day PO) of the same molecule?
Its value is “significant decreases”.

What about the “fat mass (adiposity)” value ([1]; 1 mg/kg/day PO) of the same molecule?
The value was “reduction of adiposity; also recorded: decrease”.

And the insulin sensitivity ([1]; 1 mg/kg/day PO)?
Its insulin sensitivity is “trend was observed toward an increase”.

What about the lean mass ([1]; 1 mg/kg/day PO) of the same molecule?
The lean mass was “increase of lean mass”.

What about the “liver injury (liver enzymes ALT and AST)” value ([1]; 1 mg/kg/day PO) of the same molecule?
The value was “trend was observed toward an improvement”.

And the “liver triglycerides (TG)” value ([1]; 1 mg/kg/day PO)?
The value was “reduction of liver triglycerides”.

What about the “plasma and urine levels of creatinine” value ([1]; 1 mg/kg/day PO) of the same molecule?
Its value is “no effects”.

What about the “serum HDL levels” value ([1]; 1 mg/kg/day PO) of the same molecule?
Its value is “Certain decrease”.

And the “serum LDL levels” value ([1]; 1 mg/kg/day PO)?
Its value is “significant reduction”.

And the urine glucose ([1]; 1 mg/kg/day PO)?
The urine glucose was “significant decreases”.

And the “metabolic profile: VO2, VCO2, total energy expenditure (TEE), fat oxidation” value ([1]; 1 mg/kg/day PO, indirect calorimetry)?
Its value is “significantly increases”.

And the total body weight ([1]; 1 mg/kg/day PO, vs vehicle)?
The total body weight was “significant decrease”.

And the body weight ([1]; 20 mg/kg/day PO)?
Its body weight is “reduction”.

And the fat mass ([1]; 20 mg/kg/day PO)?
The fat mass was “reduction”.

What about the food intake ([1]; 20 mg/kg/day PO) of the same molecule?
Its food intake is “reduction”.

And the lean mass ([1]; 20 mg/kg/day PO)?
Its lean mass is “increase”.

What about the “mCB1R GTPγ[^35S] (activity)” value (CB1 receptor [2]) of the same molecule?
Its value is “Antagonist”.

What about the “affinity / potency against the CB1 receptor (in words)” value (CB1 receptor [3]) of the same molecule?
Its value is “high potency”.

Reference: US20240189287A1, “PERIPHERALLY RESTRICTED CB1 RECEPTOR BLOCKERS AND USES THEREOF” (BIONANOSIM (BNS) LTD, priority 2021, published 2024)
